± gives the standard deviation of the averaged measurements. The list shows a part of the results. Repeats in this data set agree poorly, so a single value says little.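 Researchers measured free-swimming zebrafish larvae's O-bend response probability to dark flashes (naive: first five; training: remaining flashes of four 60-flash blocks; test: later 60-flash block) and OMR turning toward alternating leftward/rightward LED motion. Six treated larvae were compared to sixty 0.1% DMSO controls, with |SSMD|≥2 marking a hit.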
How the values were obtained:
Settings in all cases: 10 µM; pre-incubation: 30-90 min
[1] = system: Danio rerio larvae (5 dpf, TLF); assay: OMR-Perf (SSMD vs DMSO vehicle); higher = higher than vehicle (e.g. higher dark-flash O-bend response probability, or better optomotor performance)
[2] = system: Danio rerio larvae (5 dpf, TLF); assay: Prob-Test (SSMD vs DMSO vehicle); higher = higher than vehicle (e.g. higher dark-flash O-bend response probability, or better optomotor performance)
[3] = system: Danio rerio larvae (5 dpf, TLF); assay: Prob-Naive (SSMD vs DMSO vehicle); higher = higher than vehicle (e.g. higher dark-flash O-bend response probability, or better optomotor performance)
[4] = system: Danio rerio larvae (5 dpf, TLF); assay: Prob-Train (SSMD vs DMSO vehicle); higher = higher than vehicle (e.g. higher dark-flash O-bend response probability, or better optomotor performance)

Compound	OMR-Perf [1]	Prob-Test [2]	Prob-Naive [3]	Prob-Train [4]
CN1CCN(c2c(F)cc3c(=O)c(C(=O)O)cn(CCF)c3c2F)CC1 [Fleroxacin (Quinodis)]	-0.233	-0.548	-0.464	-0.158
Cl.NCCS [Cysteamine HCl]	-0.321	-0.351	0.585	0.0487
NC(=O)c1noc([C@H](CCCC2CCCCC2)CC(=O)NO)n1	0.000579	0.23	-0.487	0.177
Cc1cc(Cl)ccc1OCCCC(=O)NO [Droxinostat]	-0.0654	-0.0352	-0.0813	-0.306
COC(=O)[C@@H]1CC2=CC(=O)CC[C@]2(C)[C@]23O[C@H]2C[C@@]2(C)[C@@H](CC[C@]24CCC(=O)O4)[C@H]13 [Eplerenone]	-0.0179 ± 0.27	-0.038 ± 0.11	0.134	-0.208 ± 0.51
C[C@H]1CCO[C@H]2Cn3cc(C(=O)NCc4ccc(F)cc4F)c(=O)c(O)c3C(=O)N21	0.00408	0.0871	-0.0101	0.0433
CNC[C@H](O)c1ccc(O)c(O)c1 [L-Adrenaline]	-0.134	0.0493	-0.296	-0.0838
O=c1cc(-c2ccccc2)oc2cc(O)cc(O)c12 [Chrysin]	0.24	-0.807	-0.399	-0.294
CO[C@H]1C[C@@H]2CC[C@@H](C)[C@@](O)(O2)C(=O)C(=O)N2CCCC[C@H]2C(=O)O[C@H]([C@H](C)C[C@@H]2CC[C@@H](O)[C@H](OC)C2)CC(=O)[C@H](C)/C=C(\C)[C@@H](O)[C@@H](OC)C(=O)[C@H](C)C[C@H](C)/C=C/C=C/C=C/1C [Rapamycin (Sirolimus)]	0.0655	0.147	0.00409	0.249
CCn1cc(C(=O)O)c(=O)c2cc(F)c(N3CCNCC3)nc21 [Enoxacin]	-0.196	-0.107	-0.266	-0.228
CN(C)CC(c1ccc(O)cc1)C1(O)CCCCC1.O=C(O)CCC(=O)O (configuration not stated) [Desvenlafaxine Succinate]	-0.471	-0.45	-0.0948	-0.229
C[N+](C)(C)CC(O)CC(=O)O.[Cl-] (racemic) [DL-Carnitine HCl]	-0.233	0.0775	-0.286	0.204
NS(=O)(=O)c1cc2c(cc1Cl)N=CNS2(=O)=O [Chlorothiazide]	0.287	-0.302	0.26	0.487
CCCSc1ccc2nc(NC(=O)OC)[nH]c2c1 [Albendazole]	-0.854	-1.69	0.096	0.193
CC[C@H](C)C(=O)O[C@@H]1C[C@@H](C)C=C2C=C[C@H](C)[C@@H](CC[C@@H]3C[C@@H](O)CC(=O)O3)[C@H]21 [Lovastatin]	-0.587	-1.7	-0.383	-1.26
Cl.N=C(N)N [Guanidine HCl]	0.081	-0.247	0.115	-0.498
CS(=O)(=O)O.Cc1ccc(NC(=O)c2ccc(CN3CCN(C)CC3)cc2)cc1Nc1nccc(-c2cccnc2)n1 [Imatinib Mesylate (STI571)]	0.88	-0.479	0.147	-0.389
CN[C@H]1[C@@H](O)[C@H]2O[C@@H]3O[C@H](C)CC(=O)[C@]3(O)O[C@@H]2[C@@H](NC)[C@H]1O.Cl.Cl [Spectinomycin HCl]	0.204	0.531	0.402	0.694
COCCCN1CCC(NC(=O)c2cc(Cl)c(N)c3c2OCC3)CC1.O=C(O)CCC(=O)O [Prucalopride Succinat]	0.279	-1.28	-0.026	-0.784
CN/C(=C/[N+](=O)[O-])NCCSCc1csc(CN(C)C)n1 [Nizatidine]	0.161	-0.131	-0.027	-0.0204
CC(C)(O/N=C(\C(=O)N[C@@H]1C(=O)N2C(C(=O)[O-])=C(C[n+]3ccccc3)CS[C@H]12)c1csc(N)n1)C(=O)O [Ceftazidime Pentahydrate]	-0.153	0.0642	0.457	0.304
O=c1cc(-c2ccc(O)c(O)c2)oc2cc(O)cc(O)c12 [Luteolin]	0.161	-0.175	0.0696	-0.0217
CC(C)(O)CC[C@@H](O)[C@](C)(O)[C@@H]1CC[C@@]2(O)C3=CC(=O)[C@@H]4C[C@@H](O)[C@@H](O)C[C@]4(C)[C@@H]3CC[C@]12C [20-Hydroxyecdysone]	0.12	-0.356	0.146	0.116
NC(=O)c1ncn([C@@H]2O[C@@H](CO)[C@@H](O)[C@H]2O)c1N [Acadesine]	-0.464	-0.165	-0.0595	-0.0741

Compound	OMR-Perf [1]	Prob-Test [2]	Prob-Naive [3]	Prob-Train [4]
CC(C)(C)c1ccc(C(O)CCCN2CCC(C(O)(c3ccccc3)c3ccccc3)CC2)cc1 (configuration not stated) [Terfenadine]	-1.24	-1.14	0.433	-0.471
CC[C@@H]1OC(=O)[C@@H](C)[C@@H](O[C@H]2C[C@@](C)(OC)[C@@H](O)[C@H](C)O2)[C@@H](C)[C@@H](O[C@@H]2O[C@@H](C)C[C@H](N(C)C)[C@H]2O)[C@@](C)(O)C[C@@H](C)[C@@H]2N[C@@H](COCCOC)OC([C@@H]2C)[C@]1(C)O [Dirithromycin]	-0.519	-0.583	0.0902	-0.515
COc1ccc(C[C@H](C)NC[C@@H](O)c2ccc(O)c(NC=O)c2)cc1.COc1ccc(C[C@H](C)NC[C@@H](O)c2ccc(O)c(NC=O)c2)cc1.O=C(O)/C=C/C(=O)O [Formoterol Hemifumarate]	-0.0404	-0.653	0.129	-0.111
CCn1c2ccccc2c2cc(Nc3ccnc(NCCCN4CCOCC4)n3)ccc21	-0.355	-0.898	-0.646	-0.414
Cn1c(=O)n(-c2ccc(C(C)(C)C#N)cc2)c2c3cc(-c4cnc5ccccc5c4)ccc3ncc21 [BEZ235 (NVP-BEZ235, Dactolisib)]	0.39	-0.878	-0.411	-1.29
COc1ccc(COc2cc3oc(=O)c4cc(C(C)O)ccc4c3cc2OC)cc1 (configuration not stated) [Palomid 529 (P529)]	-0.594	0.28	-0.327	-0.35
Cc1ccc(-c2c(-c3nn(C)c4ncnc(N5CC[C@H](N6CCCCC6)C5)c34)cnn2C)cc1	0.368	-0.47	-0.263	-0.306
CNC(=O)c1cccc(-c2ccc3c(N4CCOC[C@@H]4C)nc(N4CCOC[C@@H]4C)nc3n2)c1	-0.111	0.266	0.0457	0.101
CC(C)(S)[C@@H](N)C(=O)O [Penicillamine (Cuprimine)]	0.751	-0.087	-0.142	-0.211
COc1cc(N2CCC(N3CCN(C)CC3)CC2)ccc1Nc1ncc(Cl)c(Nc2ccccc2S(=O)(=O)C(C)C)n1	-0.0449	0.346	0.00409	-0.603
Nc1ccc(C(=O)Nc2cccc(-c3nc(N4CCOCC4)c4oc5ncccc5c4n3)c2)cn1	-0.613	0.11	-0.618	-0.497
CC(C)c1cc(-c2n[nH]c(=O)n2-c2ccc3c(ccn3C)c2)c(O)cc1O [Ganetespib (STA-9090)]	-0.209	-0.172	0.161	-0.765
[NH2][Pt]([NH2])([Cl])[Cl] [Cisplatin]	-0.252	-0.0935	-0.332	-0.729
Cc1ccc(C(=O)C(C)CN2CCCCC2)cc1.Cl (configuration not stated) [Tolperisone HCl]	-0.395	0.385	0.232	0.987
COc1c(C)c2c(c(O)c1C/C=C(\C)CCC(=O)OCCN1CCOCC1)C(=O)OC2 [Mycophenolate Mofetil]	-0.114	-0.0829	-0.343	-0.405
Cc1cn([C@H]2C[C@H](N=[N+]=[N-])[C@@H](CO)O2)c(=O)[nH]c1=O [Zidovudine]	-0.199	-0.193	0	0.443
CCCSc1nc(N[C@@H]2C[C@@H]2c2ccc(F)c(F)c2)c2nnn([C@@H]3C[C@H](OCCO)[C@H](O)[C@H]3O)c2n1 [Ticagrelor]	0.401	0.0937	-0.367	-0.168
CC(C)[C@H]1C(=O)N[C@@H](CCCNC(=N)N)C(=O)NCC(=O)N[C@@H](CC(=O)O)C(=O)N[C@H](Cc2ccccc2)C(=O)N1C [Cilengitide]	-0.29	-0.352	-0.144	-0.306
CN/C(=N\C#N)NCCSCc1nc[nH]c1C [Cimetidine]	-0.0682	0.493	0.357	0.57
CC(=O)O[C@@]1(C(C)=O)CC[C@H]2[C@@H]3C=C(Cl)C4=CC(=O)[C@@H]5C[C@H]5[C@]4(C)[C@@H]3CC[C@@]21C [Cyproterone Acetate]	-0.967	-1.25	-0.29	-1.74
O=c1ncnc2[nH][nH]cc1-2 [Allopurinol]	-0.115	0.455	0.357	0.418
CCOC(=O)c1c(CSc2ccccc2)n(C)c2cc(Br)c(O)c(CN(C)C)c12.Cl [Arbidol HCl]	-0.806	-1.42	0	-0.513
Nc1ncn([C@H]2C[C@H](O)[C@@H](CO)O2)c(=O)n1 [Decitabine]	-0.259	-0.112	0.0243	0.195
CC(C)C(=O)Oc1ccc(CO)cc1[C@H](CCN(C(C)C)C(C)C)c1ccccc1.O=C(O)/C=C\C(=O)O [Fesoterodine Fumarate]	0.12	-0.453	0.486	-0.18

Complete entries, quoted from the list.
O=c1ncnc2[nH][nH]cc1-2 [Allopurinol] in the list: OMR-Perf [1]: -0.115; Prob-Test [2]: 0.455; Prob-Naive [3]: 0.357; Prob-Train [4]: 0.418
CNC(=O)c1cccc(-c2ccc3c(N4CCOC[C@@H]4C)nc(N4CCOC[C@@H]4C)nc3n2)c1 in the list: OMR-Perf [1]: -0.111; Prob-Test [2]: 0.266; Prob-Naive [3]: 0.0457; Prob-Train [4]: 0.101
CC(C)c1cc(-c2n[nH]c(=O)n2-c2ccc3c(ccn3C)c2)c(O)cc1O [Ganetespib (STA-9090)] in the list: OMR-Perf [1]: -0.209; Prob-Test [2]: -0.172; Prob-Naive [3]: 0.161; Prob-Train [4]: -0.765
COC(=O)[C@@H]1CC2=CC(=O)CC[C@]2(C)[C@]23O[C@H]2C[C@@]2(C)[C@@H](CC[C@]24CCC(=O)O4)[C@H]13 [Eplerenone] in the list: OMR-Perf [1]: -0.0179 ± 0.27; Prob-Test [2]: -0.038 ± 0.11; Prob-Naive [3]: 0.134; Prob-Train [4]: -0.208 ± 0.51

— the supplement of paper PMC10727501
